Source: PubChem BioAssay AID652243 (Drosophila RNAi Screening Center, 2013)

Test: 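Knock-downs that decrease or increase androgen receptor reporter signal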 (primary screen)
Cell system: Drosophila S2R+ cells
Reagents: long dsRNA against Drosophila genes
Time to read-out: 72 h (48 h, then 24 h hormone)
Treatment: synthetic androgen R1881 at 10 nM for 24 h
Measurement: 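Firefly light from an androgen-responsive reporter and Renilla control light per well, raw and unnormalised, for each of two replicates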
Scale: firefly reporter light: higher = more light from androgen-responsive reporter; Renilla control light: higher = more constitutive control signal (cell number, transfection)
Rule for the call: 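Across duplicate plates, a knock-down whose log firefly/Renilla ratio shifted a set fold down or up from the GFP/LacZ control mean was a hit; the downward cut appears as both 1.5 and 3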
Calls: active = hit: reporter lowered or raised; inactive = no hit
The deposit covers about 24,000 reagents; below is a random part of those that have a named target and a result. In the full data, 246 (1%) were called active. 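Plates not normalised; calls are printed but the firefly/Renilla ratio behind them is not deposited; fold cut for lowering reported inconsistently.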 Raw values vary from plate to plate and are shown uncorrected. The record does not give: the amount of reagent.

cactin [DRSC20576] → firefly reporter light, replicate 1 = 2.54e5; firefly reporter light, replicate 2 = 1.28e5; Renilla control light, replicate 1 = 6.79e5; Renilla control light, replicate 2 = 3.64e5; activity call = inactive
Lrch (Leucine-rich-repeats and calponin homology domain protein) [DRSC02996] → firefly reporter light, replicate 1 = 5.61e5; firefly reporter light, replicate 2 = 8.57e5; Renilla control light, replicate 1 = 1.84e6; Renilla control light, replicate 2 = 2.13e6; activity call = inactive
Lrch (Leucine-rich-repeats and calponin homology domain protein) [DRSC29145] → firefly reporter light, replicate 1 = 4.79e5; firefly reporter light, replicate 2 = 6.29e5; Renilla control light, replicate 1 = 1.20e6; Renilla control light, replicate 2 = 1.06e6; activity call = inactive
CheB38b (Chemosensory protein B 38b) [DRSC22874] → firefly reporter light, replicate 1 = 2.54e5; firefly reporter light, replicate 2 = 8.23e5; Renilla control light, replicate 1 = 4.08e5; Renilla control light, replicate 2 = 1.11e6; activity call = inactive
Vps4 (Vacuolar protein sorting 4) [DRSC19338] → firefly reporter light, replicate 1 = 45628; firefly reporter light, replicate 2 = 62248; Renilla control light, replicate 1 = 4.81e5; Renilla control light, replicate 2 = 4.03e5; activity call = inactive
Vps4 (Vacuolar protein sorting 4) [DRSC25068] → firefly reporter light, replicate 1 = 5.26e5; firefly reporter light, replicate 2 = 6.54e5; Renilla control light, replicate 1 = 9.22e5; Renilla control light, replicate 2 = 1.15e6; activity call = inactive
CG11374 [DRSC00306] → firefly reporter light, replicate 1 = 80754; firefly reporter light, replicate 2 = 80749; Renilla control light, replicate 1 = 4.19e5; Renilla control light, replicate 2 = 5.02e5; activity call = inactive
CG13151 [DRSC06276] → firefly reporter light, replicate 1 = 2.37e5; firefly reporter light, replicate 2 = 2.01e5; Renilla control light, replicate 1 = 1.55e6; Renilla control light, replicate 2 = 1.67e6; activity call = inactive
CG2656 [DRSC12584] → firefly reporter light, replicate 1 = 51859; firefly reporter light, replicate 2 = 40789; Renilla control light, replicate 1 = 2.88e5; Renilla control light, replicate 2 = 3.07e5; activity call = inactive
Oseg5 (Outer segment 5) [DRSC03209] → firefly reporter light, replicate 1 = 1.49e5; firefly reporter light, replicate 2 = 1.44e5; Renilla control light, replicate 1 = 1.21e6; Renilla control light, replicate 2 = 1.48e6; activity call = inactive
CG13113 [DRSC02211] → firefly reporter light, replicate 1 = 1.46e5; firefly reporter light, replicate 2 = 1.50e5; Renilla control light, replicate 1 = 1.31e6; Renilla control light, replicate 2 = 1.32e6; activity call = inactive
Mayo [DRSC14300] → firefly reporter light, replicate 1 = 1.60e5; firefly reporter light, replicate 2 = 1.90e5; Renilla control light, replicate 1 = 2.14e6; Renilla control light, replicate 2 = 3.45e6; activity call = inactive
Cpsf5 (Cleavage and polyadenylation specific factor 5) [DRSC10374] → firefly reporter light, replicate 1 = 1.27e6; firefly reporter light, replicate 2 = 1.30e6; Renilla control light, replicate 1 = 1.75e6; Renilla control light, replicate 2 = 1.85e6; activity call = inactive
Cpsf5 (Cleavage and polyadenylation specific factor 5) [DRSC27451] → firefly reporter light, replicate 1 = 1.71e5; firefly reporter light, replicate 2 = 2.98e5; Renilla control light, replicate 1 = 5.24e5; Renilla control light, replicate 2 = 6.74e5; activity call = inactive

The list goes on; the last 3 above are carried over.
Mayo [DRSC14300] → firefly reporter light, replicate 1 = 1.60e5; firefly reporter light, replicate 2 = 1.90e5; Renilla control light, replicate 1 = 2.14e6; Renilla control light, replicate 2 = 3.45e6; activity call = inactive
Cpsf5 (Cleavage and polyadenylation specific factor 5) [DRSC10374] → firefly reporter light, replicate 1 = 1.27e6; firefly reporter light, replicate 2 = 1.30e6; Renilla control light, replicate 1 = 1.75e6; Renilla control light, replicate 2 = 1.85e6; activity call = inactive
Cpsf5 (Cleavage and polyadenylation specific factor 5) [DRSC27451] → firefly reporter light, replicate 1 = 1.71e5; firefly reporter light, replicate 2 = 2.98e5; Renilla control light, replicate 1 = 5.24e5; Renilla control light, replicate 2 = 6.74e5; activity call = inactive
unc-5 [DRSC05545] → firefly reporter light, replicate 1 = 6.25e5; firefly reporter light, replicate 2 = 6.02e5; Renilla control light, replicate 1 = 2.12e6; Renilla control light, replicate 2 = 2.01e6; activity call = inactive
unc-5 [DRSC07711] → firefly reporter light, replicate 1 = 68156; firefly reporter light, replicate 2 = 47085; Renilla control light, replicate 1 = 1.53e6; Renilla control light, replicate 2 = 1.53e6; activity call = inactive
unc-5 [DRSC07712] → firefly reporter light, replicate 1 = 38414; firefly reporter light, replicate 2 = 54105; Renilla control light, replicate 1 = 1.21e6; Renilla control light, replicate 2 = 1.21e6; activity call = inactive
Obp56i (Odorant-binding protein 56i) [DRSC05812] → firefly reporter light, replicate 1 = 1.55e5; firefly reporter light, replicate 2 = 1.76e5; Renilla control light, replicate 1 = 1.44e5; Renilla control light, replicate 2 = 70844; activity call = inactive
CG11771 [DRSC14379] → firefly reporter light, replicate 1 = 81244; firefly reporter light, replicate 2 = 71575; Renilla control light, replicate 1 = 5.49e5; Renilla control light, replicate 2 = 4.47e5; activity call = inactive
CG11771 [DRSC27732] → firefly reporter light, replicate 1 = 2.38e5; firefly reporter light, replicate 2 = 2.54e5; Renilla control light, replicate 1 = 5.03e5; Renilla control light, replicate 2 = 6.36e5; activity call = inactive
Eig71Eb (Ecdysone-induced gene 71Eb) [DRSC11149] → firefly reporter light, replicate 1 = 3.22e5; firefly reporter light, replicate 2 = 2.23e5; Renilla control light, replicate 1 = 3.27e6; Renilla control light, replicate 2 = 2.02e6; activity call = inactive
